Reference: paper PMC4169428
These are yes or no findings as the source states them, for the method shown. For some of these results: Binding seen in cells or lysates may run through a third protein. Some results given as binding are weak or reduced against the parent protein; the word gives no strength. For some of these results: Sequences can lack the tags named with a protein.

Sequences of proteins named here, by UniProt entry; tags and fusion partners are left off.
UniProt P50750: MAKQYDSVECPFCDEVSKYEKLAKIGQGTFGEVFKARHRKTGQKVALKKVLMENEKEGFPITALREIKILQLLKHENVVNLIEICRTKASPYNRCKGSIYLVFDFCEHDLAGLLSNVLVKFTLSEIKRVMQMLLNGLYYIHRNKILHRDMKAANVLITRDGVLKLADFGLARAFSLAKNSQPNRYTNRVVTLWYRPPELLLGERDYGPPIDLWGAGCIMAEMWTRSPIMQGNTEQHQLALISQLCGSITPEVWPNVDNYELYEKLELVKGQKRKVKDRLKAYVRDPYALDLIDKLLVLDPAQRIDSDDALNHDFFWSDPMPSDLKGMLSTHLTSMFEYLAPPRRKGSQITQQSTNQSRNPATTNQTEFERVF

Legend:
[1] = molecular target: T1, GST-ICP22 (Herpes Simplex Virus 1 ICP22 protein, full length, GST-tagged) (Herpes Simplex Virus 1 (HSV-1)) (UniProt P04485); test: pull-down; GST-tagged proteins immobilized on Sepharose 4B-glutathione beads, incubated with 400 µl HeLa nuclear extract at 4°C for 2 h; washes with 0.15 M and 0.3 M KCl HEGN buffer (20 mM Hepes pH 7.6, 10% glycerol, 0.2% NP-40, 0.1 mM EDTA, 1 mM DTT); beads boiled; western blot with anti-pol II and anti-CDK9; only the target purified
T1 sequence: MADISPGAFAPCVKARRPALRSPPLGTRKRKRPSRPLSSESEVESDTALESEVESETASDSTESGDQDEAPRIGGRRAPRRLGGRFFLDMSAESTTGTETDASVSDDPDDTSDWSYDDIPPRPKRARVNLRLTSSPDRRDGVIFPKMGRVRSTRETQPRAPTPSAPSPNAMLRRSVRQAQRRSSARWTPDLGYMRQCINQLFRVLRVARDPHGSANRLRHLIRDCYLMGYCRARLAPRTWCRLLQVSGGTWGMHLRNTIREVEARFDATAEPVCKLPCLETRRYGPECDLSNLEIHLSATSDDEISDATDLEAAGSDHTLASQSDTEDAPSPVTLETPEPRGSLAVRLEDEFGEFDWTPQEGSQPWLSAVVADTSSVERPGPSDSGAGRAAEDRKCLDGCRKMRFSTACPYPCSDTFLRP

[2] = molecular target: GST-193-256 (residues 193 to 256 of HSV-1 ICP22, GST-tagged) (Herpes Simplex Virus 1 (HSV-1)) (UniProt P04485); test: as above
[3] = molecular target: T1, GST-ICP22 (Herpes Simplex Virus 1 ICP22 protein, full length, GST-tagged) (Herpes Simplex Virus 1 (HSV-1)); test: pull-down; GST-tagged proteins immobilized on beads, incubated with 300 ng recombinant P-TEFb in 200 µl buffer (250 mM NaCl, 50 mM Tris pH 7.5, 1% NP40, 2 mM EDTA) at 4°C for 1 h; washed 3x, eluted with 10 mM glutathione; western blot with anti-CDK9; both purified
[4] = molecular target: GST-193-256 (residues 193 to 256 of HSV-1 ICP22, GST-tagged) (Herpes Simplex Virus 1 (HSV-1)) (UniProt P04485); test: as above

Substance | binding [1] | binding [2] | binding [3] | binding [4]
Cyclin-dependent kinase 9 (CDK9) in HeLa nuclear extract (from UniProt P50750 1-372) | binds | binds | – | –
recombinant P-TEFb (CDK9 and truncated Cyclin T1, residues 1-266) (from UniProt P50750 1-372; O60563 1-266) (complex) | – | – | binds | binds
